The series in a line: physchem. To be noted: pH 8. An excerpt: In the present invention, the distribution coefficient (octanol/water distribution coefficient) may be adopted as the index of “water soluble” and “liposoluble” in the “water soluble steroid” and the “liposoluble steroid.” The distribution coefficient can be expressed in log D in consideration of the influence of pH, and water solubility is indicated by a minus value while liposolubility is indicated by a plus value.
The distribution coefficient can be obtained according to the method of JIS […] or JIS […].

Consider `C[C@H]1C[C@H]2[C@@H]3CCC4=CC(=O)C=C[C@]4(C)[C@@]3(F)[C@@H](O)C[C@]2(C)[C@@]1(O)C(=O)COP(=O)([O-])[O-].[Na+].[Na+]` [betamethasone sodium phosphate], for which the “distribution coefficient (log D)” value is given as −5.
The compound `C[C@@H]1C[C@H]2[C@@H]3CCC4=CC(=O)C=C[C@]4(C)[C@@]3(F)[C@@H](O)C[C@]2(C)[C@@]1(O)C(=O)COP(=O)(O)O` [dexamethasone sodium phosphate] returned a logD of -5.

The values are drawn from US20190167568A1, “Transdermal Drug Delivery System and Method for Using Same” (SENJU USA, INC., priority 2016, published 2019).
